Test results as given in paper PMC8613289.
These are yes or no findings as the source states them, for the method shown. Binding seen in cells or lysates may run through a third protein. Some binding calls cover weakened binding; strength is not graded here.

Chains of the proteins cited; added tags and fusions are not shown. Residues count along the entry.
UniProt P29317, residues 24-976: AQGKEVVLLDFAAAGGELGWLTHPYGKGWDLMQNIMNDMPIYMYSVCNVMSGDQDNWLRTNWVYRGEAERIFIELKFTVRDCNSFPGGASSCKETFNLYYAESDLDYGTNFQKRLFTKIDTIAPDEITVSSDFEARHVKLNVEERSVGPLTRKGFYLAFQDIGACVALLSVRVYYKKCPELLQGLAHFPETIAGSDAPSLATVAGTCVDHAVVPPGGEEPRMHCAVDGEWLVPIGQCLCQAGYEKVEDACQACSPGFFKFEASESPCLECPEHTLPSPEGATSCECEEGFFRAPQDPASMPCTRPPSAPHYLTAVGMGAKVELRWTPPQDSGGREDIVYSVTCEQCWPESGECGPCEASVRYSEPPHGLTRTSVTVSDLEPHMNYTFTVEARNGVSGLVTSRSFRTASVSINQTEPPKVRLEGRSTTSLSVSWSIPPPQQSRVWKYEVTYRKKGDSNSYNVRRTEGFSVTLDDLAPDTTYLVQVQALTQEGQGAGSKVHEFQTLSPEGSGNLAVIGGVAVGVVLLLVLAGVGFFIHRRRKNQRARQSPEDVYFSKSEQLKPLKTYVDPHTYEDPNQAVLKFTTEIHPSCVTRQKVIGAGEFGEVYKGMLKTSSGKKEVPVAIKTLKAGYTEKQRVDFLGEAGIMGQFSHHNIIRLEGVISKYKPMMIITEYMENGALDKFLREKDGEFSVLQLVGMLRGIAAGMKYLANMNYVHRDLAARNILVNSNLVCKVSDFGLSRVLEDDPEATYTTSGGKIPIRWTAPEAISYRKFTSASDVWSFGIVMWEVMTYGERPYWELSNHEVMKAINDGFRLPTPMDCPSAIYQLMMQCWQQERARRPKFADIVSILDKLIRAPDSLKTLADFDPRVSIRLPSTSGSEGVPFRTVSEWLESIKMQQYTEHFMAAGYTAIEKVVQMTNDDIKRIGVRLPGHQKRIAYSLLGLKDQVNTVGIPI
UniProt Q14974: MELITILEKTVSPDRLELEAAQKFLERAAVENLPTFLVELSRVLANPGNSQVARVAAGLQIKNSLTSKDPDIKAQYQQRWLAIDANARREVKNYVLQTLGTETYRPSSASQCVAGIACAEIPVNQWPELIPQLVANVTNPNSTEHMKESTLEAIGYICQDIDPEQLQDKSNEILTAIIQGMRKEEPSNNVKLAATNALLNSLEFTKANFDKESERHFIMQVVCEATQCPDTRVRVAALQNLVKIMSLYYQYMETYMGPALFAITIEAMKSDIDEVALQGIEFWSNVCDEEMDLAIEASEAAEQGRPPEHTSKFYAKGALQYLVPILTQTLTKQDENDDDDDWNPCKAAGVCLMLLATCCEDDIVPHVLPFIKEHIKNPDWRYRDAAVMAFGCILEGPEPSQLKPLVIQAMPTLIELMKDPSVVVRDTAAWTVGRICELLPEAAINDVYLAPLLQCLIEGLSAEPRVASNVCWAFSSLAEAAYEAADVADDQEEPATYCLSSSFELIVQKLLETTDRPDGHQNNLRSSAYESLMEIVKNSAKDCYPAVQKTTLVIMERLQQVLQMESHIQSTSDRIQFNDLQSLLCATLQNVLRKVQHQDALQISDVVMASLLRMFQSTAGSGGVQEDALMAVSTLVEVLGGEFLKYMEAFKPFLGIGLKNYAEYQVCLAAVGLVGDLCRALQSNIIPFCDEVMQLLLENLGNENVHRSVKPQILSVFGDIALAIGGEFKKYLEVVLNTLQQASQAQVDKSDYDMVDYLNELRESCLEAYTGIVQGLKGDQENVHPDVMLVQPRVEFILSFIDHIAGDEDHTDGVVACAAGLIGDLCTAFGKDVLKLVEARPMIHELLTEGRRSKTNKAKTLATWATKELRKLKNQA
UniProt P84095: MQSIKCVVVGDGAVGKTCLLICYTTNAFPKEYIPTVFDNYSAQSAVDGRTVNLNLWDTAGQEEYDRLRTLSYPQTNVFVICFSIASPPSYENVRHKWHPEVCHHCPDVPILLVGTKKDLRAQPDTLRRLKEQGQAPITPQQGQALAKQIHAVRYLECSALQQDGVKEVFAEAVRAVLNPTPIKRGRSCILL
UniProt P52294: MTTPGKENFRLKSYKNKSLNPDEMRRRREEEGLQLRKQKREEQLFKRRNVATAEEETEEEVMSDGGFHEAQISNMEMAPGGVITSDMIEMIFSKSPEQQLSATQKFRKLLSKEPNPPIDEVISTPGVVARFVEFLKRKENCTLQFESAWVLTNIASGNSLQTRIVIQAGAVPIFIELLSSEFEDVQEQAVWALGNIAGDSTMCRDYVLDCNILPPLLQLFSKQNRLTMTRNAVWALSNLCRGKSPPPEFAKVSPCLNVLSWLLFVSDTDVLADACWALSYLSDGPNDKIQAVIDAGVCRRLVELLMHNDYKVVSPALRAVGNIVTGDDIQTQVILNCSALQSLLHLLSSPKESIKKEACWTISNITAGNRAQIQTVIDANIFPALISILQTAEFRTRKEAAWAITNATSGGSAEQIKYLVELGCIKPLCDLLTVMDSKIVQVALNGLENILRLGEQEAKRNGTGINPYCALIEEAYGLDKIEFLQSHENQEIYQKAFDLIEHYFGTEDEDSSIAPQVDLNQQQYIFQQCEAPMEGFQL

Tests used:
[1] = molecular target: EphA2 (as in the co-immunoprecipitation with RhoG) (UniProt P29317); assay: co-IP; RhoG with EphA2, with or without HGF; bait and constructs not stated (Supplementary Fig. 4a)
EphA2-GFP (wild type) = EphA2-GFP (wild type) (UniProt P29317); assay: co-IP; EphA2-GFPs immunoprecipitated with mouse anti-GFP on anti-mouse IgG Dynabeads; cells with or without HGF for 5 min; lysis in 200 mM NaCl, 75 mM Tris-HCl pH 7, 0.15% Tween-20; 2 h at 4 °C; importins by western blotting

Molecule	binding [1]	binding (EphA2-GFP (wild type))
importin-α7 (from UniProt O60684 1-536)	–	binds
importin-β1 (from UniProt Q14974 1-876)	–	binds
transportin-3 (protein, UniProt Q9Y5L0 1-923) MEGAKPTLQLVYQAVQALYHDPDPSGKERASFWLGELQRSVHAWEISDQLLQIRQDVESCYFAAQTMKMKIQTSFYELPTDSHASLRDSLLTHIQNLKDLSPVIVTQLALAIADLALQMPSWKGCVQTLVEKYSNDVTSLPFLLEILTVLPEEVHSRSLRIGANRRTEIIEDLAFYSSTVVSLLMTCVEKAGTDEKMLMKVFRCLGSWFNLGVLDSNFMANNKLLALLFEVLQQDKTSSNLHEAASDCVCSALYAIENVETNLPLAMQLFQGVLTLETAYHMAVAREDLDKVLNYCRIFTELCETFLEKIVCTPGQGLGDLRTLELLLICAGHPQYEVVEISFNFWYRLGEHLYKTNDEVIHGIFKAYIQRLLHALARHCQLEPDHEGVPEETDDFGEFRMRVSDLVKDLIFLIGSMECFAQLYSTLKEGNPPWEVTEAVLFIMAAIAKSVDPENNPTLVEVLEGVVRLPETVHTAVRYTSIELVGEMSEVVDRNPQFLDPVLGYLMKGLCEKPLASAAAKAIHNICSVCRDHMAQHFNGLLEIARSLDSFLLSPEAAVGLLKGTALVLARLPLDKITECLSELCSVQVMALKKLLSQEPSNGISSDPTVFLDRLAVIFRHTNPIVENGQTHPCQKVIQEIWPVLSETLNKHRADNRIVERCCRCLRFAVRCVGKGSAALLQPLVTQMVNVYHVHQHSCFLYLGSILVDEYGMEEGCRQGLLDMLQALCIPTFQLLEQQNGLQNHPDTVDDLFRLATRFIQRSPVTLLRSQVVIPILQWAIASTTLDHRDANCSVMRFLRDLIHTGVANDHEEDFELRKELIGQVMNQLGQQLVSQLLHTCCFCLPPYTLPDVAEVLWEIMQVDRPTFCRWLENSLKGLPKETTVGAVTVTHKQLTDFHKQVTSAEECKQVCWALRDFTRLFR	–	binds

Continued, values first:

binding [1]	binding (EphA2-GFP (wild type))	Molecule
binds	–	RhoG (from UniProt P84095 1-191)
–	binds	importin-α5 (from UniProt P52294 1-538)
